The values that follow come from PubChem BioAssay AID445 (National Center for Advancing Translational Sciences (NCATS), 2006).

Structures are written as SMILES. The list shows a part of the results. The main result of the screen is listed elsewhere. These columns were measured beside it and carry no call. Most of these compounds were active or inconclusive in the main read-out, so they are no random draw. Words in brackets tell the shape of the fitted curve; partial curves, single points and poor fits give uncertain potencies.

The test can be described thus: IkB Signaling. The conditions noted are these: ABC-DLBCL IkBa-CBG/CBR dual luciferase ratio (green luciferase fused to IkBa over red control in OCI-Ly3 lymphoma cells), 4 h. The method in brief:
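Curves were fitted separately to fusion (green), unfused (red) and ratio luminescence, then classed by r2, magnitude and activity. Cells: OCI-Ly3, 4 h compound plus doxycycline at 37C; 10 uM MG-132 defined full response.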

Where [1] appears, read: measured here: control luc red channel unless noted.
Where [2] appears, read: measured here: IkB-luc green channel.
[3] abbreviates: measured here: control luc red channel.

Broadly, the AC50 is the concentration giving half of the maximal activity seen.

On to `Cc1ccccc1NC(=O)CCOc1ccccc1`, for which the half-maximal activity concentration (AC50) under setting [1] was 31.6 µM [falling, single point].

As for `COc1cc(-c2nc3ccc(Cl)cn3c2Nc2ccc3c(c2)OCO3)ccc1O`, the AC50 under setting [1] was 20 µM [falling, partial curve]. As for `CCOc1cccc(C(=O)Nc2ccc(N(CC)CC)cc2)c1`, the AC50 under setting [1] was 15.8 µM [falling, partial curve]. With `CC(NC(=O)c1ccc(CSc2nc3ccncc3n2Cc2ccc(F)cc2)cc1)c1ccccc1` (stereo not given), under setting [1], the AC50 was 12.6 µM [falling, partial curve].

In the case of `O=C(CC1CCCCC1)c1c(O)c2ccccc2oc1=O`, under setting [1], the AC50 was 1.58 µM [falling, full curve]. On the same count and under the same terms, as for `Cc1cc(Nc2cccc(F)c2)nc(-c2ccccc2O)n1`, the figure is 39.8 µM [rising, single point] [measured here: IkB-luc green channel]. On to `O=C(CSC1=NS(=O)(=O)c2ccccc21)Nc1ccccc1`, for which the AC50 runs as follows: under setting [2], 3.98 µM [rising, full curve]; under setting [3], 0.00316 µM [falling, full curve]. For the compound `CCOC(=O)c1cnc(-c2ccccc2)nc1N`, under setting [1], the AC50 is 10 µM [falling, partial curve].

On to `COCCNC(=O)c1ccc2c(c1)N(Cc1ccc(C(F)(F)F)cc1)C(=O)c1ccccc1S2`, for which the concentration at half-maximal activity (AC50) under setting [1] is 12.6 µM [falling, partial curve]. Consider `COc1ccc(-c2cn(-c3ccc(C)cc3)c(S(=O)(=O)CC(=O)Nc3ccccc3)n2)cc1`, for which the AC50 under setting [1] is 12.6 µM [falling, partial curve]. Consider `Cc1ccc(CNC(=O)CN(C)S(=O)(=O)c2ccc(Br)s2)cc1`, for which, under setting [1], the AC50 is 3.16 µM [falling, partial curve].

Regarding `CCn1c(=O)cc(OCC(=O)Nc2ccc(C)cn2)c2ccccc21`, under setting [1], the AC50 is 7.94 µM [falling, full curve, poor fit]. Consider `CC(C)c1ccccc1NC(=O)CSc1nnc(COc2ccccc2)o1`, for which the AC50 under setting [1] is 15.8 µM [falling, partial curve]. Take `O=C(Nc1ccc(Cl)c(Cl)c1)c1cc(S(=O)(=O)N2CCN(c3cccc(Cl)c3)CC2)ccc1F`: the AC50 under setting [1] was 12.6 µM [falling, partial curve]. Consider `O=C(NCCCCc1ccccc1)c1nn(-c2ccccc2F)nc1CO`, for which the concentration at half-maximal activity (AC50) under setting [1] was 25.1 µM [falling, partial curve]. Regarding `CC(C)OCCCn1c(SCC(N)=O)nc2c(sc3ccccc32)c1=O`, under setting [1], the AC50 is 3.98 µM [rising, single point]. Turning to `O=C(c1ccc(CS(=O)c2ccccc2Cl)o1)N1CCN(c2cccc(C(F)(F)F)c2)CC1` (stereo not given), the AC50 under setting [1] was 25.1 µM [falling, single point]. In the case of `Cc1ccc(-c2nc3cnccn3c2Nc2ccccc2)o1`, the AC50 under setting [2] is 6.31 µM [rising, single point] and the AC50 under setting [3] is 39.8 µM [falling, single point]. As for `O=C(Nc1ccccc1)Nc1cccc2cccnc12`, the AC50 under setting [1] is 20 µM [falling, partial curve]. Take `c1ccc(OCc2nc(-c3ccccc3)no2)cc1`: the AC50 under setting [1] is 20 µM [falling, single point]. As for `CCCOc1ccc(C(=O)NCC(c2ccc(OC)cc2)N2CCCCC2)cc1` (stereo not given), the AC50 under setting [1] was 39.8 µM [falling, single point]. Take `COc1ccc(Cn2ccn(CC(=O)Nc3cc(C)ccc3C)c(=O)c2=O)cc1`: under setting [1], the half-maximal activity concentration (AC50) was 20 µM [falling, single point]. For the compound `C=CCn1c(N)c(C(=O)NCC2CCCO2)c2nc3ccccc3nc21` (stereo not given), the AC50 under setting [1] is 10 µM [falling, partial curve]. In the case of `Cc1ccc(NC(=O)Cn2c(=O)ccc3cc(S(=O)(=O)N4CCCC4)ccc32)cc1C`, the half-maximal activity concentration (AC50) under setting [1] is 7.94 µM [falling, full curve, poor fit]. `O=C(Nc1nc2cc3c(cc2s1)OCCO3)c1cccc(S(=O)(=O)N2CCOCC2)c1`: under setting [1], the AC50 is 15.8 µM [falling, partial curve]. As to `COc1cc(CN(C(=O)c2ccccc2)c2ccccn2)cc(OC)c1OC`, under setting [1], the AC50 was 3.16 µM [falling, partial curve]. Regarding `COc1ccc2c(c1)c(=O)c(C(=O)c1ccc(F)cc1)cn2CC(=O)Nc1ccc2c(c1)OCCO2`, the AC50 under setting [1] was 39.8 µM [rising, single point] [measured here: IkB-luc green channel]. As for `COc1ccc(-c2cn3cccnc3n2)cc1NC(=O)c1ccccc1C(F)(F)F`, under setting [1], the AC50 was 7.94 µM [rising, partial curve]. On to `COc1ccccc1N(CCC#N)C(=O)CSc1nc(-c2ccccc2)cn1N`, for which the AC50 under setting [1] was 31.6 µM [falling, single point].

`O=C1CC(N(O)c2ccccc2)C(=O)N1c1cc(Cl)cc(Cl)c1` (stereo not given): the AC50 under setting [1] is 0.398 µM [falling, full curve, poor fit].

Turning to `CCOC(=O)CSc1nnc(-c2ccc(OC)cc2)o1`, the half-maximal activity concentration (AC50) under setting [1] is 39.8 µM [falling, single point].

As to `Cc1cn2c(=O)cc(COC(=O)COc3ccc(C)c(C)c3)nc2s1`, the AC50 under setting [1] was 0.0794 µM [rising, full curve, poor fit]. Same read-out and setting: as for `CCCOc1ccc(C(=O)N(Cc2ccc(Cl)cc2)Cc2ccco2)cc1`, the figure is 31.6 µM [falling, single point]; as for `Cc1ccc(CNC(=O)c2ccc3c(c2)NC(=O)C(CS(=O)(=O)Cc2cccc(C)c2)N3)cc1` (stereo not given), 25.1 µM [falling, single point].

With `COc1ccc(CCNC(=O)c2cc(-c3ccccc3O)n[nH]2)cc1OC`, the concentration at half-maximal activity (AC50) under setting [1] is 5.01 µM [falling, partial curve].

Turning to `Cc1cccc(N(C)S(=O)(=O)c2nnc(NC(=O)C(C)(C)C)s2)c1`, the AC50 under setting [1] is 15.8 µM [falling, partial curve]. The same measure, in the same setting: to `O=C(c1ccc2c(c1)N(Cc1ccccc1F)C(=O)c1ccccc1S2=O)N1CCC(Cc2ccccc2)CC1` (stereo not given) belongs 6.31 µM [falling, partial curve]; to `COc1ccc(NC(=O)C2CCCN(S(=O)(=O)c3cccc4cccnc34)C2)cc1` (stereo not given), 15.8 µM [falling, partial curve].

Turning to `CCOC(=O)c1cc(-c2ccc(F)cc2)n(CCC(=O)Nc2nc3cc(C)c(C)cc3s2)c1C`, under setting [1], the AC50 is 2.51 µM [falling, full curve]. Regarding `CCOc1ccc(-n2c(-c3ccc(Br)cc3)cc3c2CC(C)(C)CC3=O)cc1`, the AC50 under setting [1] is 39.8 µM [falling, partial curve]. `COc1ccc(OCc2ccc(-c3nc(C#N)c(NCc4ccc(F)cc4)o3)o2)cc1`: the half-maximal activity concentration (AC50) under setting [1] is 1.26 µM [falling, partial curve]. In the case of `O=C(CN1CCN(c2nc(-c3ccc(F)cc3)cs2)CC1)NCc1ccc2c(c1)OCO2`, the half-maximal activity concentration (AC50) under setting [1] is 12.6 µM [falling, partial curve].

Turning to `OCCN1CCN(c2ncnc3c2cnn3-c2cccc(Cl)c2)CC1`, under setting [1], the AC50 was 39.8 µM [falling, single point].

For `Cc1ccc(CNC(=O)C2CCCN(c3nc4ccccc4n4cccc34)C2)cc1` (stereo not given), under setting [1], the AC50 was 12.6 µM [falling, partial curve]. As for `COc1ccc(C(C)NC(=O)CN(c2cc(OC)ccc2OC)S(=O)(=O)c2ccccc2)cc1` (stereo not given), the AC50 under setting [1] is 25.1 µM [falling, partial curve]. Turning to `Brc1cccc(-c2nn(-c3ccccc3)c3c2cnc2cc4c(cc23)OCO4)c1`, under setting [1], the AC50 was 25.1 µM [falling, single point]. The same measure, in the same setting: to `CCc1cccc(C)c1NC(=O)C1CCN(S(=O)(=O)c2cc(Br)cc3c2N(C(C)=O)CC3)CC1` belongs 25.1 µM [rising, single point]. `O=C(c1cccs1)N1CCCc2cc(NS(=O)(=O)c3ccc(Br)cc3)ccc21`: the AC50 under setting [1] is 20 µM [falling, partial curve]. Take `COc1cccc(-n2ccnc2SCC(=O)Nc2cccc3ccccc23)c1`: under setting [1], the AC50 was 0.158 µM [rising, full curve, poor fit]. `COc1ccc(-n2c(CC3C(=O)Nc4ccc(C)cc43)nc3ccccc3c2=O)cc1` (stereo not given): the AC50 under setting [1] was 25.1 µM [falling, single point]. Same read-out and setting: to `O=C(NCc1ccccc1Cl)c1ccc2c(c1)ncn2-c1cccc(F)c1` belongs 39.8 µM [falling, single point]; to `CCc1ccc(C2c3c(-c4cc(C)ccc4O)n[nH]c3C(=O)N2CCO)cc1` (stereo not given), 15.8 µM [falling, single point]. Take `Cn1c(SCC(=O)N2CCOCC2)ncc(C(=O)Nc2ccc(F)cc2)c1=O`: the AC50 runs as follows: under setting [2], 39.8 µM [rising, single point]; under setting [3], 6.31 µM [falling, single point].

Turning to `COc1ccc(NC(=O)CCCS(=O)(=O)c2nc(-c3ccccc3OC)cc(C(F)(F)F)n2)c(OC)c1`, the AC50 under setting [1] was 7.94 µM [falling, partial curve]. As to `Cn1c(C(=O)NCc2ccccc2Cl)cc2sc(Cl)cc21`, the AC50 under setting [1] is 31.6 µM [falling, single point]. Consider `COc1cccc(CNC(=O)CN(c2cc(C)cc(C)c2)S(=O)(=O)c2c(C)noc2C)c1`, for which, under setting [1], the AC50 was 12.6 µM [falling, partial curve]. Same read-out and setting: to `COc1ccc(-c2csc3ncnc(Nc4ccc(OC)cc4OC)c23)cc1` belongs 31.6 µM [falling, partial curve]. In the case of `CCc1cccc(NC(=O)Cn2c(=O)n(CC3CCC(C(=O)NC)CC3)c(=O)c3sccc32)c1` (stereo not given), the concentration at half-maximal activity (AC50) under setting [1] is 3.98 µM [falling, full curve, poor fit]. As for `O=C(Cc1cccs1)Nc1ccccc1C(=O)O`, the AC50 under setting [1] is 15.8 µM [falling, partial curve].

As for `COc1cccc(CNC(=O)Cn2c(=O)cc(C)c3c(C)nn(C)c32)c1OC`, under setting [1], the AC50 was 39.8 µM [falling, single point]. With `O=C(NC1CCCCC1)c1ccc2c(c1)N(Cc1ccc(F)cc1)C(=O)c1ccccc1S2(=O)=O`, the AC50 under setting [1] was 10 µM [falling, partial curve, poor fit]. For the compound `N#CC1=C(N)N(c2ccc(Cl)cc2)C2=C(C(=O)CCC2)C1c1cc(CN2CCOCC2)cs1` (stereo not given), the half-maximal activity concentration (AC50) under setting [1] was 10 µM [falling, partial curve].
